Reference: doi:10.1101/2021.08.04.455086
Read-outs that look alike come from different tables or passages of the source. These are yes or no findings as the source states them, for the method shown. Binding seen in cells or lysates may run through a third protein. Some results given as binding are weak or reduced against the parent protein; the word gives no strength.

Chains of the proteins cited; added tags and fusions are not shown.
UniProt Q9R1A8: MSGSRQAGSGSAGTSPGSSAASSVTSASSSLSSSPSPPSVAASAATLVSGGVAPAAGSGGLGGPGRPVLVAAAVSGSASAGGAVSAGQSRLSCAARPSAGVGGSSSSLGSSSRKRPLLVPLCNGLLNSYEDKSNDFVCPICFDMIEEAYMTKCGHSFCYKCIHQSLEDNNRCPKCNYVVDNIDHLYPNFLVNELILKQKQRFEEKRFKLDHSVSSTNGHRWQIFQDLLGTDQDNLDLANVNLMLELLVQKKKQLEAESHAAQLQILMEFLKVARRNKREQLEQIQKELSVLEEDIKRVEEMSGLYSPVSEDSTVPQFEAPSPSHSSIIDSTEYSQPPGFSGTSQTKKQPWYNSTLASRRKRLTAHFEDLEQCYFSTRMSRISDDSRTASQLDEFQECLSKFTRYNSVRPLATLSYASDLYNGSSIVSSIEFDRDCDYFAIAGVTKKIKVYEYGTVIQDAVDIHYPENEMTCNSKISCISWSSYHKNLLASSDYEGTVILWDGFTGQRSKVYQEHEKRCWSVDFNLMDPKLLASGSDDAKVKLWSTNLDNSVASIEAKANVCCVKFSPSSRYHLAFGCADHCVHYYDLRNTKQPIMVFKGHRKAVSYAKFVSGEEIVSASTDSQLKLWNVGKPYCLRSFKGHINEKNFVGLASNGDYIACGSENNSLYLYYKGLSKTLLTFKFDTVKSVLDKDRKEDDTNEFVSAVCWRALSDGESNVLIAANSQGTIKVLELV

Columns and labels:
[1] = target: T1, IRF9 (Interferon Regulatory Factor 9) (mouse (endogenous in BALB/c peritoneal macrophages and lung)) (UniProt Q61179); assay: co-IP
T1 sequence: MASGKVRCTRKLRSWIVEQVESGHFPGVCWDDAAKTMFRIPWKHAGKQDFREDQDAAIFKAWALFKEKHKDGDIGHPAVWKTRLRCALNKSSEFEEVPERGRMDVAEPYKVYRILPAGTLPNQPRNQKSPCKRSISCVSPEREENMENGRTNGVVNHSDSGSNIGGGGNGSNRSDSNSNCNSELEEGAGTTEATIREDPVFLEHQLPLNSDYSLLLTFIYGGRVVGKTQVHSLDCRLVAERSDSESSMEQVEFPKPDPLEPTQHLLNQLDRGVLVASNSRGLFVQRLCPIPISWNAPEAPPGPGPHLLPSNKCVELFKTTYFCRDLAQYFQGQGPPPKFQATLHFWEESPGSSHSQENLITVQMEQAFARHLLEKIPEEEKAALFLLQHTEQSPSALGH

[2] = target: T1, IRF9 (Interferon Regulatory Factor 9) (mouse (endogenous in BALB/c peritoneal macrophages and lung)); assay: co-IP; remark: listed apart in the source

For “COP1 (Constitutive photomorphogenesis protein 1) (from UniProt Q9R1A8 1-733) (enzyme)”, the binding [1] was “binds” and the binding [2] was “binds”.
